According to PubChem BioAssay AID248 (DTP/NCI, 2004):
The list does not hold the whole screen: it is rich in T/C values a quarter to a half above the control, in often repeated tests (any T/C) and in doses without a T/C. Further doses and runs are listed elsewhere. T/C: endpoint of the treated group in % of that of the vehicle group. Some doses have a count of surviving animals in place of a T/C: the source holds a T/C of zero for them, seemingly a mark for toxic or unscored doses. Some survivor counts are full or nearly so, which does not show that the dose was tolerated: the source hardly ever lists a survival T/C far under the control, and the zero likely stands for such cases as well. Counts of survivors are from the toxicity check (mostly the fifth day) where no day follows; animals may have died later. Schedule codes are those of the source, taken here to give the interval after Q, in days (D) or hours (H), and the number of doses after X. Some schedule codes hold Z or #, which are not explained here. Some doses were run more than once; the results are listed from low to high. Where survival is the endpoint, the PubChem record calls one and a half times the control and up active, and a quarter to a half above the control has no call in these data; cut-offs in other NCI protocols can differ. Additions like (4×) count equal records among those shown. Some T/C values carry the count of animals alive at the toxicity check (mostly the fifth day); where none is given, no animal had died by that day.

Test system: L1210 leukemia ip in BDF1 mice, survival T/C
Assay: NCI In Vivo Anticancer Drug Screen. Data for tumor model L1210 Leukemia (intraperitoneal) in B6D2F1 (BDF1) mice
Conditions: higher T/C = longer survival
[1] = T/C endpoint: mean survival time, dose: 400.0 mg/kg/injection, schedule: Q01DX001 (ip), vehicle: Klucel (hydroxypropylcellulose) (HPC)
[2] = T/C endpoint: mean survival time, dose: 400.0 mg/kg/injection, schedule: Q04DX002 (ip), vehicle: Klucel (hydroxypropylcellulose) (HPC)
[3] = T/C endpoint: mean survival time, dose: 400.0 mg/kg/injection, schedule: Q04DX003 (ip), vehicle: Klucel (hydroxypropylcellulose) (HPC)
[4] = T/C endpoint: mean survival time, dose: 400.0 mg/kg/injection, schedule: Q04DX003 (ip), vehicle: saline
[5] = T/C endpoint: mean survival time, dose: 100.0 mg/kg/injection, schedule: Q04DX003 (ip), vehicle: saline with Tween-80
[6] = T/C endpoint: mean survival time, dose: 200.0 mg/kg/injection, schedule: Q04DX003 (ip), vehicle: saline with Tween-80
[7] = T/C endpoint: mean survival time, dose: 400.0 mg/kg/injection, schedule: Q04DX003 (ip), vehicle: saline with Tween-80
[8] = T/C endpoint: mean survival time, dose: 25.0 mg/kg/injection, schedule: Q01DX009 (ip), vehicle: saline with Tween-80
[9] = T/C endpoint: mean survival time, dose: 200.0 mg/kg/injection, schedule: Q01DX009 (ip), vehicle: saline with Tween-80

`Cc1nc(S(C)(=O)=O)nc(S(C)(=O)=O)c1Cl` was tested, and the survivor count (T/C endpoint: mean survival time, dose: 25.0 mg/kg/injection, schedule: Q01DX001 (ip), vehicle: Klucel (hydroxypropylcellulose) (HPC)) was 0 of 6, the survivor count (T/C endpoint: mean survival time, dose: 50.0 mg/kg/injection, schedule: Q01DX001 (ip), vehicle: Klucel (hydroxypropylcellulose) (HPC)) was 0 of 6 and the survivor count (T/C endpoint: mean survival time, dose: 100.0 mg/kg/injection, schedule: Q01DX001 (ip), vehicle: Klucel (hydroxypropylcellulose) (HPC)) was 0 of 6. For the same compound, the survivor count (T/C endpoint: mean survival time, dose: 200.0 mg/kg/injection, schedule: Q01DX001 (ip), vehicle: Klucel (hydroxypropylcellulose) (HPC)) was 0 of 6 and the survivor count [1] was 0 of 6.

For `CC(C)C[CH2][Pb]([CH2]CC(C)C)([CH2]CC(C)C)[O]C(=O)C(C)C`, the survivor count (T/C endpoint: mean survival time, dose: 6.25 mg/kg/injection, schedule: Q01DX009 (ip), vehicle: Klucel (hydroxypropylcellulose) (HPC)) was 1 of 6, the survivor count (T/C endpoint: mean survival time, dose: 12.5 mg/kg/injection, schedule: Q04DX002 (ip), vehicle: Klucel (hydroxypropylcellulose) (HPC)) was 0 of 3 and 3 of 3 and the survivor count (T/C endpoint: mean survival time, dose: 25.0 mg/kg/injection, schedule: Q04DX002 (ip), vehicle: Klucel (hydroxypropylcellulose) (HPC)) was 2 of 3. The survivor count (T/C endpoint: mean survival time, dose: 50.0 mg/kg/injection, schedule: Q04DX002 (ip), vehicle: Klucel (hydroxypropylcellulose) (HPC)) was 0 of 3, the survivor count (T/C endpoint: mean survival time, dose: 100.0 mg/kg/injection, schedule: Q04DX002 (ip), vehicle: Klucel (hydroxypropylcellulose) (HPC)) was 1 of 3 and the survivor count (T/C endpoint: mean survival time, dose: 200.0 mg/kg/injection, schedule: Q04DX002 (ip), vehicle: Klucel (hydroxypropylcellulose) (HPC)) was 1 of 3. The survivor count [2] was 0 of 3.

With `CN(C)CCCN=NNc1nc[nH]c1C(N)=O` the survivor count [3] was 3 of 6.

`O=C(O)C1C(C(=O)O)C23CC2(C(=O)O)C2(C(=O)O)CCC3=C3CCCC312` (stereo unspecified) was tested, and the survivor count (T/C endpoint: mean survival time, dose: 25.0 mg/kg/injection, schedule: Q01DX009 (ip), vehicle: saline) was 3 of 6, the survivor count (T/C endpoint: mean survival time, dose: 50.0 mg/kg/injection, schedule: Q01DX001 (ip), vehicle: saline) was 1 of 6 and the survivor count (T/C endpoint: mean survival time, dose: 100.0 mg/kg/injection, schedule: Q01DX001 (ip), vehicle: saline) was 1 of 6. The survivor count (T/C endpoint: mean survival time, dose: 200.0 mg/kg/injection, schedule: Q01DX001 (ip), vehicle: saline) was 0 of 6 and the survivor count (T/C endpoint: mean survival time, dose: 400.0 mg/kg/injection, schedule: Q01DX001 (ip), vehicle: saline) was 0 of 6.

In the case of `CSC1OC(C(NC(=O)N(C)N=O)C(C)O)C(O)C(O)C1O` (stereo unspecified), the T/C [4] is reported as 139 % of control.

In the case of `c1ccc(C2=NC(c3ccccc3)N3CC23c2ccccc2)cc1` (stereo unspecified), the survivor count [1] is reported as 3 of 3.

In the case of `NC(=NCc1ccccc1)c1ccccc1`, the survivor count [5] is reported as 1 of 3, the survivor count [6] is reported as 0 of 3 and the survivor count [7] is reported as 0 of 3.

In the case of `O=C(CCc1ccccc1)NC(=S)Nc1ccc(I)cc1`, the T/C [8] is reported as 90, 101, 105 % of control, the survivor count [8] is reported as 3 of 3 and the T/C (T/C endpoint: mean survival time, dose: 50.0 mg/kg/injection, schedule: Q01DX009 (ip), vehicle: saline with Tween-80) is reported as 88, 94, 107 % of control (2×). The T/C (T/C endpoint: mean survival time, dose: 100.0 mg/kg/injection, schedule: Q01DX009 (ip), vehicle: saline with Tween-80) was 92, 94, 95, 96 (2×), 112 % of control, the T/C (T/C endpoint: mean survival time, dose: 100.0 mg/kg/injection, schedule: Q04DX002 (ip), vehicle: saline with Tween-80) was 143 % of control and the T/C [9] was 86, 89, 100 % of control. The survivor count [9] was 3 of 3.

With `CCCCCCC(=O)N1CCCC(C)C1` (stereo unspecified) the survivor count [2] was 1 of 3.

For `NC(N)=N/N=C/c1cccs1`, the survivor count (T/C endpoint: mean survival time, dose: 15.0 mg/kg/injection, schedule: Q01DX Z (ip), vehicle: saline) was 6 of 6, the survivor count (T/C endpoint: mean survival time, dose: 60.0 mg/kg/injection, schedule: Q01DX Z (ip), vehicle: saline) was 0 of 6 and the survivor count (T/C endpoint: mean survival time, dose: 120.0 mg/kg/injection, schedule: Q01DX Z (ip), vehicle: saline) was 0 of 6. The survivor count (T/C endpoint: mean survival time, dose: 120.0 mg/kg/injection, schedule: Q01DX Z (oral), vehicle: saline) was 0 of 6.

In the case of `CCOC(=O)CCC(NC(=O)OCc1ccccc1)C(=O)O` (stereo unspecified), the survivor count [3] is reported as 2 of 6.

In the case of `C[n+]1c2ccccc2c(Nc2ccc(NS(=O)(=O)CCCCN=C(N)N)cc2)c2ccc(N)cc21`, the T/C (T/C endpoint: mean survival time, dose: 0.25 mg/kg/injection, schedule: Q03HX008 (ip), vehicle: water) is reported as 126 % of control, the T/C (T/C endpoint: mean survival time, dose: 0.75 mg/kg/injection, schedule: Q01DX009 (ip), vehicle: water, evaluated on day 30) is reported as 144 % of control and the T/C (T/C endpoint: mean survival time, dose: 0.75 mg/kg/injection, schedule: Q01DX009 (ip), vehicle: water, evaluated on day 60) is reported as 134 % of control [9 of 10 alive]. The T/C (T/C endpoint: mean survival time, dose: 1.0 mg/kg/injection, schedule: Q03HX008 (ip), vehicle: water) was 134 % of control, the T/C (T/C endpoint: mean survival time, dose: 1.5 mg/kg/injection, schedule: Q01DX009 (ip), vehicle: water) was 141 % of control and the T/C (T/C endpoint: mean survival time, dose: 3.12 mg/kg/injection, schedule: Q01DX001 (ip), vehicle: water) was 128 % of control. For the same compound, the T/C (T/C endpoint: mean survival time, dose: 6.25 mg/kg/injection, schedule: Q01DX001 (ip), vehicle: water) was 128 % of control, the survivor count (T/C endpoint: mean survival time, dose: 50.0 mg/kg/injection, schedule: Q01DX001 (ip), vehicle: water) was 4 of 10 and the survivor count (T/C endpoint: mean survival time, dose: 50.0 mg/kg/injection, schedule: Q04DX003 (ip), vehicle: water) was 0 of 10 and 0 of 6. The survivor count [5] was 2 of 6, the survivor count [6] was 0 of 6 and the survivor count [7] was 0 of 6. For the same compound, the T/C (T/C endpoint: median survival time, dose: 3.0 mg/kg/injection, schedule: Q01DX009 (sc), vehicle: water) was 140 % of control and the survivor count (T/C endpoint: median survival time, dose: 24.0 mg/kg/injection, schedule: Q01DX009 (sc), vehicle: water) was 9 of 10.

For `CC1CC(NC(=S)S)CC(C)(C)C1` (stereo unspecified), the survivor count (T/C endpoint: mean survival time, dose: 100.0 mg/kg/injection, schedule: Q01DX009 (ip), vehicle: Klucel (hydroxypropylcellulose) (HPC)) was 2 of 6, the survivor count (T/C endpoint: mean survival time, dose: 200.0 mg/kg/injection, schedule: Q01DX009 (ip), vehicle: Klucel (hydroxypropylcellulose) (HPC)) was 4 of 6 and the survivor count (T/C endpoint: mean survival time, dose: 400.0 mg/kg/injection, schedule: Q01DX009 (ip), vehicle: Klucel (hydroxypropylcellulose) (HPC)) was 2 of 6. The survivor count [3] was 2 of 6.

In the case of `O=c1sc(=S)[nH]c2ccccc12`, the survivor count [3] is reported as 3 of 6.

With `CC(C)(O)C(Cl)(Cl)Cl` the survivor count [3] was 0 of 6 and the survivor count [4] was 3 of 6.

In the case of `Nc1ccc(Cc2ccncc2)cc1`, the survivor count (T/C endpoint: mean survival time, dose: 25.0 mg/kg/injection, schedule: Q04DX002 (ip), vehicle: carboxymethylcellulose (CMC)) is reported as 3 of 3, the T/C (T/C endpoint: mean survival time, dose: 100.0 mg/kg/injection, schedule: Q04DX002 (ip), vehicle: carboxymethylcellulose (CMC)) is reported as 93, 97, 98, 105 % of control and the survivor count (T/C endpoint: mean survival time, dose: 100.0 mg/kg/injection, schedule: Q04DX003 (ip), vehicle: carboxymethylcellulose (CMC)) is reported as 3 of 6. The survivor count (T/C endpoint: mean survival time, dose: 200.0 mg/kg/injection, schedule: Q04DX002 (ip), vehicle: carboxymethylcellulose (CMC)) was 1 of 6 and the survivor count (T/C endpoint: mean survival time, dose: 400.0 mg/kg/injection, schedule: Q04DX002 (ip), vehicle: carboxymethylcellulose (CMC)) was 1 of 3 and 5 of 6.

`CCN(CC)C(=S)S` was tested, and the T/C (T/C endpoint: mean survival time, dose: 125.0 mg/kg/injection, schedule: Q01DX009 (ip), vehicle: saline) was 97 (2×), 100, 101 % of control, the T/C (T/C endpoint: mean survival time, dose: 250.0 mg/kg/injection, schedule: Q01DX009 (ip), vehicle: saline) was 93, 95, 100, 103 % of control and the T/C (T/C endpoint: mean survival time, dose: 500.0 mg/kg/injection, schedule: Q01DX009 (ip), vehicle: saline) was 97 [5 of 6 alive], 98, 98 [4 of 6 alive], 103 % of control. The T/C (T/C endpoint: mean survival time, dose: 1000.0 mg/kg/injection, schedule: Q01DX009 (ip), vehicle: saline) was 112 [5 of 6 alive], 113, 114 [4 of 6 alive], 131 % of control [5 of 6 alive] and the T/C (T/C endpoint: mean survival time, dose: 1000.0 mg/kg/injection, schedule: Q01DX010 (ip), vehicle: saline) was 131 % of control.

With `CCN(CCNc1ccc(C)c2sc3ccccc3c(=O)c12)CC(C)(C)O` the T/C (T/C endpoint: mean survival time, dose: 90.0 mg/kg/injection, schedule: Q01DX009 (ip), vehicle: saline) was 137 % of control, the T/C (T/C endpoint: mean survival time, dose: 133.0 mg/kg/injection, schedule: Q01DX009 (ip), vehicle: saline) was 137 and 143 % of control and the T/C (T/C endpoint: mean survival time, dose: 200.0 mg/kg/injection, schedule: Q01DX009 (ip), vehicle: saline sonified) was 131 % of control [5 of 6 alive]. For the same compound, the survivor count (T/C endpoint: mean survival time, dose: 800.0 mg/kg/injection, schedule: Q04DX003 (ip), vehicle: saline) was 0 of 6.
